Experiment [1] concerns the target Toll-like receptor 4 (TLR4) (mouse (endogenous in mouse primary macrophages)) (UniProt Q9QUK6). Nature of the experiment: condition: only macrophages pretreated with MD2-neutralizing antibody (anti-MD2, 100 ng ml^-1); co-IP; as a1, macrophages pretreated with MD2-neutralizing antibody (anti-MD2, 100 ng ml^-1) before 100 uM PA.
Experiment [2] shares this target. Description: condition: only macrophages pretreated with the MD2 inhibitor L6H9 (10 uM); co-IP; as a1, macrophages pretreated with the small-molecule MD2 inhibitor L6H9 (10 uM) before 100 uM PA.
For experiment [3] the target is unchanged. Nature of the experiment: co-IP; mouse primary macrophages stimulated with 100 uM PA (palmitic acid); cell extracts incubated with anti-MD2 (blot: TLR4) or anti-TLR4 (blot: MyD88) antibody 1 h, protein G beads at 4 C overnight.
For experiment [4], the target named is T1, myeloid differentiation protein 2 (MD2) (mouse (endogenous in mouse primary macrophages)) (UniProt Q9JHF9).
T1 sequence: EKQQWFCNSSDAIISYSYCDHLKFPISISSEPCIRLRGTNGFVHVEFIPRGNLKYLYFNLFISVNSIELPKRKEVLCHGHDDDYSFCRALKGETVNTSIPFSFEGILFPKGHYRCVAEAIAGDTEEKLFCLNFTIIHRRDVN
Description: co-IP; the experiment of a4 (wild-type primary macrophages, exogenous Fetuin A and PA), for the two endogenous proteins MD2 and TLR4.

Amino acid sequences for entries named in this document (tags omitted). Residues count along the entry.
UniProt Q9QUK6, residues 26-835: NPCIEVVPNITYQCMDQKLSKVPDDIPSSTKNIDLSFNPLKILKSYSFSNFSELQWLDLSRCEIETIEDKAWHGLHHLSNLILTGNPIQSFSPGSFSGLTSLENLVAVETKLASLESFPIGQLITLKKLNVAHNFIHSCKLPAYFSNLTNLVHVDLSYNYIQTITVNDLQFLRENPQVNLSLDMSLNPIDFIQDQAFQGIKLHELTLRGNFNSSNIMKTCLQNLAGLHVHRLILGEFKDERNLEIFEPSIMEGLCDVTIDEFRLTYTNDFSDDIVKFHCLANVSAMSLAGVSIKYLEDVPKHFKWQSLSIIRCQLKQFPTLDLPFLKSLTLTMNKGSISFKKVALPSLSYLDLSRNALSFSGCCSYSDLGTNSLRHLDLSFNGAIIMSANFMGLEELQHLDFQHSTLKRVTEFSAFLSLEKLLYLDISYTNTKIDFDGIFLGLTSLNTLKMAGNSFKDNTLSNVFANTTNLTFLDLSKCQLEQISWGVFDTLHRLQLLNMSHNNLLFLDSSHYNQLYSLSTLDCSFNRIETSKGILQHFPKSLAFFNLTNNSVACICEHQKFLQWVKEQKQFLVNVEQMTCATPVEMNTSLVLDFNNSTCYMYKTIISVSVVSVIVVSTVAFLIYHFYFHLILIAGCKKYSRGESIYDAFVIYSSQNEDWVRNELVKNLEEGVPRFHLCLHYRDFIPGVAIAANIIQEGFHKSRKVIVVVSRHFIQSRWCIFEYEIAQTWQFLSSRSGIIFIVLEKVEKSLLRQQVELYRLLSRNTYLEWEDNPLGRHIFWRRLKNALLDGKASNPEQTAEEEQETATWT
UniProt P22366: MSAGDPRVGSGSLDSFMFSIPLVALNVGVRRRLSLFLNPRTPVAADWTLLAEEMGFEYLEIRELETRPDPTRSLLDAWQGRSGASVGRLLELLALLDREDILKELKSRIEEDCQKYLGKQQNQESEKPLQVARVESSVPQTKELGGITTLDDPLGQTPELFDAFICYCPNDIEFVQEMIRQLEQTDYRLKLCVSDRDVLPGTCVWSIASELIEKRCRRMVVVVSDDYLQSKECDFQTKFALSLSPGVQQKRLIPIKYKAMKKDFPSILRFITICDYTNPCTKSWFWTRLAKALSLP

Experiment [5] addresses T1, myeloid differentiation protein 2 (MD2) (mouse (endogenous in mouse primary macrophages)). Nature of the experiment: co-IP; mouse primary macrophages stimulated with 100 uM PA (palmitic acid); cell extracts incubated with anti-MD2 (blot: TLR4) or anti-TLR4 (blot: MyD88) antibody 1 h, protein G beads at 4 C overnight.

The results in this text go back to PMC5216130, “Saturated palmitic acid induces myocardial inflammatory injuries through direct binding to TLR4 accessory protein MD2” (Nature Communications, 2017).

No constants are given. Whether binding was seen depends on the method and setting. In cells and extracts the contact can be indirect. Some binding calls cover weakened binding; strength is not graded here.

For the substance MyD88 (from UniProt P22366 1-296), the binding result in experiment [1] was “no binding”; in experiment [2] it was “no binding”; in experiment [3], “binds”.
Regarding “Toll-like receptor 4 (TLR4) (from UniProt Q9QUK6 26-835)”, the binding entry in experiment [4] and in experiment [5] was “binds” throughout.
